The source of these data is PubChem BioAssay AID2685 (National Center for Advancing Translational Sciences (NCATS), 2010).

The assay in a line: qHTS Assay for Lipid Storage Modulators in Drosophila S3 Cells.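 As to cell number change: cells counted by Cell Tracker Red CMTPX staining in the red channel.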 The following applies: BODIPY lipid droplet fluorescence, 18-24 h; for cell number change: measured here: cell count max response, cells fed with added oleic acid. In short, it runs like this:
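Drosophila S3 cells loaded with oleic acid (400 uM, as added) and compounds at several concentrations; lipid droplets imaged by 488-nm laser-scanning cytometry, 500–530 nm intensity and object ratio to cell channel. Percent activity normalized to 20 uM Triacsin C.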

Setting [1] is: measured here: lipid fluorescence (Fed channel) AC50, cells fed with added oleic acid.
[2] abbreviates: measured here: cell number channel AC50, cells fed with added oleic acid.

Each structure is given as a SMILES string. Some of the results follow. These are further read-outs of the screen, such as a control signal, another cell line or another target. No call is given for them. Most of these compounds were active or inconclusive in the main read-out, so they are no random draw. Words in brackets tell the shape of the fitted curve; partial curves, single points and poor fits give uncertain potencies.

Consider `CN(C)N1C(N)=C(C#N)C(c2cccc3ccccc23)C2=C1CC(c1ccccc1)CC2=O` (configuration not stated), for which the cell number change is -7.18%. Further, the AC50 under setting [1] was 29.1 µM [falling, single point]. As for `Cn1c(CN2CCCCC2)nc2cc([N+](=O)[O-])ccc21`, the cell number change amounted to 22.5%.

Consider `COc1ccc(C)cc1NC(=O)CSc1nc(=O)n(CCCN2CCOCC2)c2c1CCCC2`, for which the cell number change was -9.66%. Moreover, the half-maximal activity concentration (AC50) under setting [1] was 2.06 µM [rising, partial curve, poor fit]. As to `O=C(NNC(=S)NC(=O)c1ccco1)c1ccc(F)cc1`, the cell number change was 1.6%. For the compound `O=C(NCC(c1ccco1)N1CCCCC1)c1cc2c(s1)CCCC2` (configuration not stated), the cell number change was 16.3%. Moreover, the concentration at half-maximal activity (AC50) under setting [2] is 2.06 µM [falling, single point]. As for `Cc1cccc(OCc2nnc(SCC(=O)N3CCCC3)n2C)c1`, the cell number change came out at 58.7%. Moreover, the half-maximal activity concentration (AC50) under setting [2] is 16.4 µM [rising, partial curve]. Further, the AC50 under setting [1] was 6.51 µM [rising, single point]. As for `O=C(CN1CCN(c2ccccn2)CC1)NC1CCCC1`, the cell number change came out at 0.194%. The concentration at half-maximal activity (AC50) under setting [1] is 14.6 µM [rising, single point].

Regarding `Cn1cccc1Cc1nnc(SCC(=O)NCc2ccc3c(c2)OCO3)n1CCc1ccccc1`, the half-maximal activity concentration (AC50) under setting [1] is 0.58 µM [rising, single point]. Take `COC(c1ccccc1)c1nnc(CCC(=O)N(C)CCc2ccccc2)o1` (configuration not stated): the cell number change was -28%. Moreover, under setting [1], the AC50 was 20.6 µM [falling, partial curve, poor fit].

Regarding `CCCN(CCC)C(=O)CSc1nc2ccccc2c(=O)n1C1CCCC1`, under setting [1], the concentration at half-maximal activity (AC50) was 6.51 µM [rising, single point].

With `CC(C)NC(=O)CN1C(=O)NC(CCc2ccccc2)C1=O` (configuration not stated), the cell number change is 16.2%. Turning to `COc1ccc(C(=O)N2CCOC2CNC(=O)C(=O)NCCc2ccc(OC)c(OC)c2)cc1` (configuration not stated), the cell number change turned out to be 5.82%. Besides, under setting [1], the AC50 was 0.651 µM [falling, full curve]. In the case of `Cc1ccc(NC(=O)CSc2ccccn2)cc1S(=O)(=O)N1CCOCC1`, the cell number change came to 36.4%. Under setting [2], the AC50 is 6.51 µM [rising, single point]. Take `COc1ccc(/C=C2/SC(=O)N(CCC(=O)Nc3ccccc3C(=O)O)C2=S)cc1`: the cell number change was determined as 19.4%. The AC50 under setting [1] was 2.06 µM [rising, full curve, poor fit]. `Cc1nn(C)cc1C(N)=O`: the cell number change was -21.4%. Also, the AC50 under setting [1] is 4.11 µM [falling, full curve].

For the compound `CCC(=O)n1nc(-c2cccnc2)nc1NCc1ccccc1`, the cell number change stood at 5.98%. Also, the concentration at half-maximal activity (AC50) under setting [2] was 3.66 µM [falling, single point]. In addition, under setting [1], the half-maximal activity concentration (AC50) is 3.66 µM [falling, single point].

For the compound `Cc1cccc(OCC(=O)N2CCC(N3CCCCCC3)CC2)c1`, the cell number change is -34.8%. Under setting [2], the AC50 is 2.59 µM [falling, full curve]. As for `CCCCc1nc2sc3c(c2c(=O)[nH]1)CCC3`, the cell number change was -13%. Moreover, the AC50 under setting [1] was 0.326 µM [falling, partial curve].

Turning to `Cc1ccc(C(=O)N2CC=C(c3ccccc3)CC2)o1`, the cell number change is 2.78%. In addition, the AC50 under setting [1] is 1.46 µM [rising, partial curve]. With `O=[N+]([O-])C(C1CCS(=O)(=O)C1)C1CCS(=O)(=O)C1` (configuration not stated), the cell number change was -27.1%. Further, the AC50 under setting [1] was 3.66 µM [falling, partial curve, poor fit]. In the case of `CSc1cccc(CN2CCCC(C(=O)Nc3cccc(-n4cccn4)c3)C2)c1` (configuration not stated), the cell number change amounted to 11.9%. With `CC(C)(C)C(=O)CN1C2=NCCCN2c2ccccc21`, the cell number change came out at 20.2%. Also, under setting [1], the concentration at half-maximal activity (AC50) was 0.13 µM [rising, full curve, poor fit]. For `O=C(c1ccc(CSc2ccc(Cl)cc2)cc1)N1CCCC1`, the cell number change was 2.6%. Take `O=C(Cn1cnc2ccccc21)N1CCc2ccccc21`: the cell number change is -33.3%. The AC50 under setting [2] was 32.6 µM [falling, single point]. Further, the AC50 under setting [1] is 29.1 µM [falling, partial curve, poor fit]. For `COc1ccc(C)cc1NC(=O)CN(c1ccccc1F)S(C)(=O)=O`, the cell number change is -10.3%. In addition, under setting [1], the concentration at half-maximal activity (AC50) is 1.03 µM [rising, full curve]. Turning to `O=C1CCC(=O)N1CNc1ccccn1`, the cell number change was -143%. Under setting [2], the concentration at half-maximal activity (AC50) is 23.1 µM [falling, partial curve]. The AC50 under setting [1] was 29.1 µM [falling, partial curve]. Regarding `CCCCn1c(N)c(N(CCC(C)C)C(=O)C2CCCN(C(=O)c3ccc(Cl)cc3)C2)c(=O)[nH]c1=O` (configuration not stated), the cell number change was 23%. Regarding `COc1ccc(N(C(=O)CNC(=O)c2ccco2)C(C(=O)NC2CCCCC2)c2ccncc2)cc1` (configuration not stated), the cell number change turned out to be 5.65%. Also, the AC50 under setting [1] was 6.51 µM [rising, single point]. Consider `CCN(c1ccccc1)S(=O)(=O)c1cc(OC)ccc1OC`, for which the cell number change was found to be 27.5%. Moreover, the AC50 under setting [1] is 29.1 µM [rising, single point].

For `O=C(c1ccco1)N1CCN(C(=O)c2cc3c(s2)-c2ccccc2OC3)CC1`, the cell number change is -1.63%. Under setting [1], the AC50 was 0.651 µM [rising, full curve, poor fit]. `COCCNS(=O)(=O)c1ccc(OCC(=O)OC)c(Cl)c1`: the cell number change was -31.2%. Moreover, the AC50 under setting [2] was 8.2 µM [falling, partial curve]. The AC50 under setting [1] is 11.6 µM [falling, partial curve].

Turning to `CC1CCC(C(C)C)C(OC(=O)COC(=O)c2ccc(=O)[nH]c2)C1` (configuration not stated), the cell number change is -35%. In addition, the AC50 under setting [2] was 32.6 µM [falling, single point]. With `COc1ccc(CN2CCN(C(=O)CC(C)C)CC2)cc1Br`, the cell number change stood at 16.3%. In addition, the AC50 under setting [1] was 8.2 µM [rising, single point]. As for `CCC(Sc1ncccc1C(=O)OCCN1CCCC1=O)C(=O)NCc1ccco1` (configuration not stated), the cell number change worked out at 23.2%. Under setting [1], the AC50 was 23.1 µM [rising, partial curve, poor fit]. Consider `CC1CN(CCCCOc2cccc(Oc3ccccc3)c2)CC(C)O1` (configuration not stated), for which the cell number change came out at 65.5%. Besides, the AC50 under setting [2] was 18.4 µM [rising, partial curve]. Moreover, under setting [1], the AC50 is 29.1 µM [rising, partial curve]. `COc1ccc2c(c1)c(=O)c(C(=O)c1ccc(Cl)cc1)cn2CC(=O)Nc1ccc(F)cc1`: the cell number change turned out to be 15.3%. In addition, under setting [1], the concentration at half-maximal activity (AC50) was 0.731 µM [rising, full curve, poor fit]. Regarding `COc1ccccc1NC(=O)CSc1nnc(CC(=O)Nc2cccc(C(F)(F)F)c2)n1C`, the cell number change is 180%. For the same compound, the AC50 under setting [2] is 11.6 µM [rising, partial curve]. Moreover, the half-maximal activity concentration (AC50) under setting [1] is 20.6 µM [rising, partial curve]. In the case of `COc1ccc(N2CCN(CC(O)COCCOc3ccc(Br)cc3)CC2)cc1` (configuration not stated), the cell number change was -20%. Under setting [1], the AC50 was 29.1 µM [rising, single point].

Turning to `COC(=O)c1ccc(NC(=O)CNC(=O)C2CCCCC2)cc1`, the cell number change amounted to 11.2%. As to `C=CCN(CC=C)CCOc1ccccc1[N+](=O)[O-]`, the cell number change is 5.85%. Besides, under setting [1], the AC50 was 0.231 µM [rising, full curve]. Take `COC(=O)C1(C)NC(c2ccccc2C)C2C(=O)N(c3ccc(F)cc3)C(=O)C21` (configuration not stated): the cell number change was found to be 30.2%. Also, the concentration at half-maximal activity (AC50) under setting [2] was 0.82 µM [rising, full curve]. In addition, the AC50 under setting [1] was 29.1 µM [rising, single point]. As for `COc1ccc(N2CCN(C(=O)c3ccc(CS(=O)c4cccc(C)c4)o3)CC2)cc1` (configuration not stated), the cell number change is -39.5%. The AC50 under setting [2] was 0.206 µM [falling, full curve, poor fit]. As for `CC(=O)NC1=NN(C(C)=O)C2(S1)C(=O)N(CC(C)C)c1ccc(C)cc12` (configuration not stated), the cell number change is -26.9%. Further, under setting [2], the AC50 was 0.00517 µM [falling, full curve, poor fit]. For the same compound, the AC50 under setting [1] is 29.1 µM [falling, single point]. Turning to `O=C(CSc1cc(Cl)ccc1Cl)NC1CCCC1`, the cell number change came to 27%. Moreover, the AC50 under setting [1] was 6.51 µM [rising, single point]. For the compound `Cc1ccc(N(CC(=O)NCc2ccco2)C(=O)CCC(=O)Nc2ccccn2)c(C)c1`, the cell number change was -10.3%. On to `Cc1c(NC(=O)C(C)NCC2CCCO2)c(=O)n(-c2ccccc2)n1C` (configuration not stated), for which the cell number change stood at 9.55%. The AC50 under setting [1] is 0.517 µM [falling, single point]. With `CCN1CCN(c2nc(N)c([N+](=O)[O-])c(Nc3cccc(C)c3)n2)CC1`, the cell number change was -4.55%.

In the case of `CC(=O)N1c2ccc(S(=O)(=O)N3CCCC3C(=O)NCc3ccccc3Cl)cc2CC1C` (configuration not stated), the cell number change is -1.15%. Also, the AC50 under setting [1] was 0.164 µM [rising, full curve, poor fit].

Turning to `C=CCOc1ccc(C2=NOC(C(=O)Nc3ccc4c(c3)OCCO4)C2)cc1OC` (configuration not stated), the half-maximal activity concentration (AC50) under setting [1] was 0.231 µM [rising, full curve, poor fit]. For `Cc1cc2nc(C)n(CCCNC(=O)Nc3ccccc3)c2cc1C`, the cell number change was found to be 31.7%. Besides, under setting [2], the AC50 is 0.411 µM [rising, full curve]. For the compound `O=C(NCCCN1CCN(c2ccccc2)CC1)C1CCCN(c2ncnc3c2nc2n3CCCCC2)C1` (configuration not stated), the cell number change was -78.2%.

Turning to `O=C(Nc1ccccc1)C1CCCN(C(=O)c2ccc(F)cc2)C1` (configuration not stated), the cell number change was determined as 1.91%. Also, the half-maximal activity concentration (AC50) under setting [1] is 29.1 µM [rising, single point]. With `COc1cc2ccccc2cc1C(=O)Nc1ccc2oc(=O)ccc2c1`, the cell number change was found to be 5.26%.

On to `COc1cc(/C=C/[N+](=O)[O-])ccc1OC(=O)c1cc2ccccc2oc1=O`, for which the cell number change is -0.739%. The AC50 under setting [1] is 6.51 µM [falling, single point]. Take `Cc1nn(CCO)c(C)c1Oc1ccccc1O`: the cell number change was -24%. Also, under setting [2], the AC50 is 0.00517 µM [falling, full curve, poor fit]. For the same compound, the AC50 under setting [1] was 2.06 µM [falling, partial curve, poor fit]. `Cc1ccc(S(=O)(=O)N(C)C)cc1NC(=O)COC(=O)c1c(C)noc1C`: the cell number change is -33.3%. Moreover, the half-maximal activity concentration (AC50) under setting [2] was 18.4 µM [falling, single point]. As to `CC(=O)Nc1cccc(NC(=S)Nc2cccc3ccccc23)c1`, the cell number change worked out at 11.4%. Besides, under setting [2], the AC50 was 2.91 µM [rising, partial curve, poor fit]. The half-maximal activity concentration (AC50) under setting [1] is 18.4 µM [rising, single point]. On to `Cc1ccccc1CN(C)C(=O)COC(=O)CSc1ccc([N+](=O)[O-])cc1`, for which the cell number change was -32.9%. In addition, the AC50 under setting [2] was 4.61 µM [falling, full curve, poor fit].

Turning to `CCNC(=S)NNC(=O)c1ccccc1OC(F)F`, the cell number change was determined as 24.7%. In addition, under setting [2], the AC50 is 0.731 µM [rising, full curve, poor fit]. For the compound `COc1ccccc1-c1nnc(SCC(=O)Nc2ccc(Cl)cc2Cl)o1`, the AC50 under setting [2] was 0.00461 µM [rising, full curve, poor fit].

For the compound `CCc1nnc(NC(=O)c2cccc(S(=O)(=O)N(C)c3ccc(OC)cc3)c2)s1`, the concentration at half-maximal activity (AC50) under setting [1] is 0.58 µM [falling, single point].

In general, AC50 refers to the concentration giving half of the maximal activity seen. Lower therefore signals greater potency.
